This passage reports binding results from publication PMC8469114.

Protein sequences, listed by entry. Tags and fused reporters are not part of them. Residues count along the entry.
UniProt Q9NZQ7, residues 19-290: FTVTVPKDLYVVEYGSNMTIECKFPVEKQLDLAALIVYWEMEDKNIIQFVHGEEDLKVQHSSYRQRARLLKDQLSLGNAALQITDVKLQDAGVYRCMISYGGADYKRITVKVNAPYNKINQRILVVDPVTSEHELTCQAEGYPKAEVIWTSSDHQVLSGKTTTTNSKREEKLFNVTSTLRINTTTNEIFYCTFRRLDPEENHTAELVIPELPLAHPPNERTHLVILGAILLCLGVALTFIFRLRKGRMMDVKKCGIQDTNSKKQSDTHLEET
UniProt P35241: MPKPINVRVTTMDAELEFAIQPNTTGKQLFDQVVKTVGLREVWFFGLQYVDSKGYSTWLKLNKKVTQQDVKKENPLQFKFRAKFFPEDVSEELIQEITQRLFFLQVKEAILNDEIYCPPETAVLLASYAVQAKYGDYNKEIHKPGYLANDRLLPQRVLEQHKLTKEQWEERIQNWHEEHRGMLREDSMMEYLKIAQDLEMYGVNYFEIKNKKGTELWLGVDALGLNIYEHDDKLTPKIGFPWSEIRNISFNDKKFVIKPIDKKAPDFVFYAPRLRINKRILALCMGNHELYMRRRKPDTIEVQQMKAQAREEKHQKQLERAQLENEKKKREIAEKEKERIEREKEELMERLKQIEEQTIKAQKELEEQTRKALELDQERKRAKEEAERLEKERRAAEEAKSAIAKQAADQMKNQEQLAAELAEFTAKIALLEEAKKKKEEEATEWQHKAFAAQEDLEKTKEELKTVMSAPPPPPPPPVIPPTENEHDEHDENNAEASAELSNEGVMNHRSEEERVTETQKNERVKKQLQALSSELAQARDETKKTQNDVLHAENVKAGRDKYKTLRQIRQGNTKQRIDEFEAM
UniProt P15311: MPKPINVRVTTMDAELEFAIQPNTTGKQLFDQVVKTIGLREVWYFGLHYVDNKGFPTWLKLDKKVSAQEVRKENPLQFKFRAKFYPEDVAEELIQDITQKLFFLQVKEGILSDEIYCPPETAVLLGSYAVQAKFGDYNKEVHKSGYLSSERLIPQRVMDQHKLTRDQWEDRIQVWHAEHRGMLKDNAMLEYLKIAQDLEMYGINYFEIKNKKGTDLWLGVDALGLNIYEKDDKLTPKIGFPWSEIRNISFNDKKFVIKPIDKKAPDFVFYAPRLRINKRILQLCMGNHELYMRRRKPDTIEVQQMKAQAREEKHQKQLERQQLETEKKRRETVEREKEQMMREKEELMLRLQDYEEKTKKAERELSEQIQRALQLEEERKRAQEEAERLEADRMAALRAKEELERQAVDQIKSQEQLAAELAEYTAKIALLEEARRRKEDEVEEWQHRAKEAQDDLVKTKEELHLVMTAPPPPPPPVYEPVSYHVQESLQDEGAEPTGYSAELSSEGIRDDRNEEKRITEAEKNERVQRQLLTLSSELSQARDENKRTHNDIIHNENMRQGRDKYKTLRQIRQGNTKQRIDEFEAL
UniProt P26038: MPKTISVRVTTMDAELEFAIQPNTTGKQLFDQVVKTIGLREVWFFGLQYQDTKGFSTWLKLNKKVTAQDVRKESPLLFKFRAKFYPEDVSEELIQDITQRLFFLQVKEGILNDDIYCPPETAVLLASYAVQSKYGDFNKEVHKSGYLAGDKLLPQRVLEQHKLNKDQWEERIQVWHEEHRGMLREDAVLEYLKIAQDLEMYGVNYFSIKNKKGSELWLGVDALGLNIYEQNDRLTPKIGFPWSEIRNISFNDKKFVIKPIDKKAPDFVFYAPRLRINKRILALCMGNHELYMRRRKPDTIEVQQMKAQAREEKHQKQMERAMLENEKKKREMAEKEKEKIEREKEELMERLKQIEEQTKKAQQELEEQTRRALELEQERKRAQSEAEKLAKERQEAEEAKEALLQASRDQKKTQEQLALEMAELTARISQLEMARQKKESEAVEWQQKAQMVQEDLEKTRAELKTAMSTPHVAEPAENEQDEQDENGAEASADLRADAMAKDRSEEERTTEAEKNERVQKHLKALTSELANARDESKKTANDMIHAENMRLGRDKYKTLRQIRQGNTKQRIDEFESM

Test in all cases: co-IP; pre-cleared HeLa whole-cell lysate (RIPA buffer with protease inhibitors) incubated overnight at 4 °C with rabbit Ab against PD-L1, ezrin, radixin or moesin, or control Ab (1:30); nProtein A Sepharose; washed thrice with RIPA buffer; Western blot
Experiment [1] has as its target programmed cell death ligand-1 (human (endogenous in HeLa)) (UniProt Q9NZQ7).
The target of experiment [2] is radixin (human (endogenous in HeLa)) (UniProt P35241).
The target in experiment [3] is ezrin (human (endogenous in HeLa)) (UniProt P15311).
In experiment [4] the target is moesin (human (endogenous in HeLa)) (UniProt P26038).

These are yes or no findings as the source states them, for the method shown. In cells and extracts the contact can be indirect. Some results given as binding are weak or reduced against the parent protein; the word gives no strength.

As for radixin (from UniProt P35241 1-583), the binding result in experiment [1] was “binds”. On to “phosphorylated ezrin (from UniProt P15311 1-586)”, for which the binding result in experiment [1] is listed as “binds”.

Regarding “programmed cell death ligand-1 (from UniProt Q9NZQ7 19-290)”, the binding entry in experiment [2], in experiment [3] and in experiment [4] was “binds” in each case. As to moesin (from UniProt P26038 1-577), the binding result in experiment [1] is “binds”. In the case of ezrin (from UniProt P15311 1-586), the binding result in experiment [1] is “binds”.
